Results on 23 sequences are retold here after paper PMC8384837.

Positions count from the first letter of the chain named. This is one part of the list. For some assays here: At the low end of the ranking, values are background and their order means little. For some assays here: The exact form of the protein is not confirmed. Where only a bound is given, the exact number is not on record here.

Holding throughout (conditions): yeast three-hybrid, YBZ-1, SC-Leu-His + 0.5 mM 3-AT, 4 days
For experiment [1], the target named is T1, PUM1 PUF domain R3-THE R4-TFR C935T + R936H + Q939E + N971T + H972F + Q975R (UniProt Q14671).
T1 sequence: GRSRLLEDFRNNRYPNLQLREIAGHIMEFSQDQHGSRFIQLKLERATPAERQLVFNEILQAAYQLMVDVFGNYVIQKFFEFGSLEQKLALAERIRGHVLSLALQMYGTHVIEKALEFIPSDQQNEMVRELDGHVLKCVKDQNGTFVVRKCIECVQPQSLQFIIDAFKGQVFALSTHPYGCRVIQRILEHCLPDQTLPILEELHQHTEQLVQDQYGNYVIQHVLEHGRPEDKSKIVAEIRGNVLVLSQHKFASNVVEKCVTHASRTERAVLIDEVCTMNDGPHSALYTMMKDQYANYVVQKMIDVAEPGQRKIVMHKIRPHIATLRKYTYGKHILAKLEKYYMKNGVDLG

Experiment [2] has as its target T2, PUM1 PUF domain R3-THE R4-TFR R7-NPG C935T + R936H + Q939E + N971T + H972F + Q975R + S1079N + N1080P + E1083G (Homo sapiens) (UniProt Q14671).
T2 sequence: T1 sequence with S252N, N253P, E256G

For experiment [3], the target named is T3, PUM1 PUF domain R5-PHQ R6-SWD C1007P + R1008H + N1043S + Y1044W + Q1047D (UniProt Q14671).
T3 sequence: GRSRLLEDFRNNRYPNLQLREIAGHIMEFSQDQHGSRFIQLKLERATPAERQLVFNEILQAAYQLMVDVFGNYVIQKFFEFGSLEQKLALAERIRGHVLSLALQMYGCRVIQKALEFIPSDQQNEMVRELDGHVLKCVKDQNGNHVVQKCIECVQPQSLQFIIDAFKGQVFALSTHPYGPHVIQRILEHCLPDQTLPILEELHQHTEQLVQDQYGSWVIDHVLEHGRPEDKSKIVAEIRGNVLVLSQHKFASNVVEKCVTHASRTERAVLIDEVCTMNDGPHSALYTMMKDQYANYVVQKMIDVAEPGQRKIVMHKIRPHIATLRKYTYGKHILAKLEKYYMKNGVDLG

Experiment [4] addresses T4, PUM1 PUF domain R6-SWD R7-NPG N1043S + Y1044W + Q1047D + S1079N + N1080P + E1083G (UniProt Q14671).
T4 sequence: T3 sequence with P180C, H181R, S252N, N253P, E256G

Experiment [5] concerns the target T5, PUM1 PUF domain R3-THE R4-TFR R7-NPG C935T + R936H + Q939E + N971T + H972F + Q975R + S1079N + N1080P + E1083G (UniProt Q14671).
T5 sequence: T1 sequence with S252N, N253P, E256G

Experiment [6] addresses T6, PUM1 PUF domain R6-SWD R7-NPG N1043S + Y1044W + Q1047D + S1079N + N1080P + E1083G (Homo sapiens) (UniProt Q14671).
T6 sequence: T3 sequence with P180C, H181R, S252N, N253P, E256G

As for “GGCUAGAACUAGUGGAUCCCCCGGCGCCCGGCGGCUCGAGCCCGGGUAAGUAGACGGAGUCUGCAUGCCGCCGGGCGCCAUGCCUGCAGGUCGACUCUAGAAAACAUG”, the results for the binding signal (log2 enrichment (interaction score)) in experiment [1], in experiment [2] and in experiment [3] were -6.71, -1.89 and -8.9, respectively.
With “GGCUAGAACUAGUGGAUCCCCCGGCGCCCGGCGGCUCGAGCCCGGGUAAGUAUACGCAGUCUGCAUGCCGCCGGGCGCCAUGCCUGCAGGUCGACUCUAGAAAACAUG”, the binding signal (log2 enrichment (interaction score)) was -7.73 in experiment [1] and -1.6 in experiment [2].
Regarding “GGCUAGAACUAGUGGAUCCCCCGGCGCCCGGCGGCUCGAGCCCGGGUAAGCUAACUUAGUCUGCAUGCCGCCGGGCGCCAUGCCUGCAGGUCGACUCUAGAAAACAUG”, the values for the binding signal (log2 enrichment (interaction score)) in experiment [1], in experiment [2] and in experiment [4] were -6.83, less than -0.62 and less than -2.19, respectively.
In the case of “GGCUAGAACUAGUGGAUCCCCCGGCGCCCGGCGGCUCGAGCCCGGGUAAGUUGCCGUCGUCUGCAUGCCGCCGGGCGCCAUGCCUGCAGGUCGACUCUAGAAAACAUG”, the binding signal (log2 enrichment (interaction score)) in experiment [1] is -6.61.
On to “GGCUAGAACUAGUGGAUCCCCCGGCGCCCGGCGGCUCGAGCCCGGGUAAGUUUACGUCGUCUGCAUGCCGCCGGGCGCCAUGCCUGCAGGUCGACUCUAGAAAACAUG”, for which the results for the binding signal (log2 enrichment (interaction score)) in experiment [1] and in experiment [5] were -6.46 and -2.01, respectively.
As to “GGCUAGAACUAGUGGAUCCCCCGGCGCCCGGCGGCUCGAGCCCGGGUAAGUUUCCAUCGUCUGCAUGCCGCCGGGCGCCAUGCCUGCAGGUCGACUCUAGAAAACAUG”, the figures for the binding signal (log2 enrichment (interaction score)) in experiment [1] and in experiment [2] were -6.84 and -1.92, respectively.
Consider “GGCUAGAACUAGUGGAUCCCCCGGCGCCCGGCGGCUCGAGCCCGGGUAAGUUAACGGAGUCUGCAUGCCGCCGGGCGCCAUGCCUGCAGGUCGACUCUAGAAAACAUG”, for which the results for the binding signal (log2 enrichment (interaction score)) in experiment [1], in experiment [2] and in experiment [6] were -6.99, -1.25 and -1.48, respectively.
Turning to “GGCUAGAACUAGUGGAUCCCCCGGCGCCCGGCGGCUCGAGCCCGGGUAAGUUUAUGCAGUCUGCAUGCCGCCGGGCGCCAUGCCUGCAGGUCGACUCUAGAAAACAUG”, the binding signal (log2 enrichment (interaction score)) in experiment [1] is -6.67; in experiment [5], less than -2.41.
In the case of “GGCUAGAACUAGUGGAUCCCCCGGCGCCCGGCGGCUCGAGCCCGGGUAAGUUUAAGCGGUCUGCAUGCCGCCGGGCGCCAUGCCUGCAGGUCGACUCUAGAAAACAUG”, the binding signal (log2 enrichment (interaction score)) is -5.91 in experiment [1] and -1.95 in experiment [2].
Regarding “GGCUAGAACUAGUGGAUCCCCCGGCGCCCGGCGGCUCGAGCCCGGGUAAGCUUAAGCAGUCUGCAUGCCGCCGGGCGCCAUGCCUGCAGGUCGACUCUAGAAAACAUG”, the binding signal (log2 enrichment (interaction score)) was less than -6.1 in experiment [1] and less than -1.43 in experiment [2].
The corresponding values for “GGCUAGAACUAGUGGAUCCCCCGGCGCCCGGCGGCUCGAGCCCGGGUAAGCGAAGCUCGUCUGCAUGCCGCCGGGCGCCAUGCCUGCAGGUCGACUCUAGAAAACAUG” are -6.12 and -1.01.
In the case of “GGCUAGAACUAGUGGAUCCCCCGGCGCCCGGCGGCUCGAGCCCGGGUAAGAUUAAAAAGUCUGCAUGCCGCCGGGCGCCAUGCCUGCAGGUCGACUCUAGAAAACAUG”, the binding signal (log2 enrichment (interaction score)) in experiment [1] is -7.07.
Take “GGCUAGAACUAGUGGAUCCCCCGGCGCCCGGCGGCUCGAGCCCGGGUAAGUGAAAGUAGUCUGCAUGCCGCCGGGCGCCAUGCCUGCAGGUCGACUCUAGAAAACAUG”: the binding signal (log2 enrichment (interaction score)) in experiment [1] is -7.11; in experiment [5] it was less than -2.15.
With “GGCUAGAACUAGUGGAUCCCCCGGCGCCCGGCGGCUCGAGCCCGGGUAAGUUUACUUCGUCUGCAUGCCGCCGGGCGCCAUGCCUGCAGGUCGACUCUAGAAAACAUG”, the binding signal (log2 enrichment (interaction score)) in experiment [1] is less than -7.69; in experiment [5] it was -2.32.
In the case of “GGCUAGAACUAGUGGAUCCCCCGGCGCCCGGCGGCUCGAGCCCGGGUAAGCUGACGUCGUCUGCAUGCCGCCGGGCGCCAUGCCUGCAGGUCGACUCUAGAAAACAUG”, the binding signal (log2 enrichment (interaction score)) in experiment [1] is -6.25; in experiment [2], less than -0.35.
Turning to “GGCUAGAACUAGUGGAUCCCCCGGCGCCCGGCGGCUCGAGCCCGGGUAAGUGUGCAACGUCUGCAUGCCGCCGGGCGCCAUGCCUGCAGGUCGACUCUAGAAAACAUG”, the binding signal (log2 enrichment (interaction score)) was -7.81 in experiment [1] and -1.6 in experiment [2].
Turning to “GGCUAGAACUAGUGGAUCCCCCGGCGCCCGGCGGCUCGAGCCCGGGUAAGUGUCAGACGUCUGCAUGCCGCCGGGCGCCAUGCCUGCAGGUCGACUCUAGAAAACAUG”, the binding signal (log2 enrichment (interaction score)) in experiment [1] was -7.38; in experiment [2], less than -0.17.
The corresponding values for “GGCUAGAACUAGUGGAUCCCCCGGCGCCCGGCGGCUCGAGCCCGGGUAAGUUUGCCUAGUCUGCAUGCCGCCGGGCGCCAUGCCUGCAGGUCGACUCUAGAAAACAUG” are -6.75 and -0.72.
Regarding “GGCUAGAACUAGUGGAUCCCCCGGCGCCCGGCGGCUCGAGCCCGGGUAAGGCUACACCGUCUGCAUGCCGCCGGGCGCCAUGCCUGCAGGUCGACUCUAGAAAACAUG”, the binding signal (log2 enrichment (interaction score)) was -6.66 in experiment [1] and -2.09 in experiment [5].
Turning to “GGCUAGAACUAGUGGAUCCCCCGGCGCCCGGCGGCUCGAGCCCGGGUAAGCUUGGUUAGUCUGCAUGCCGCCGGGCGCCAUGCCUGCAGGUCGACUCUAGAAAACAUG”, in experiment [1], the binding signal (log2 enrichment (interaction score)) was less than -7.7.
On to “GGCUAGAACUAGUGGAUCCCCCGGCGCCCGGCGGCUCGAGCCCGGGUAAGGUGAUGAAGUCUGCAUGCCGCCGGGCGCCAUGCCUGCAGGUCGACUCUAGAAAACAUG”, for which the binding signal (log2 enrichment (interaction score)) was -7.26 in experiment [1] and -1.07 in experiment [2].
As for “GGCUAGAACUAGUGGAUCCCCCGGCGCCCGGCGGCUCGAGCCCGGGUAAGAGUAAGUAGUCUGCAUGCCGCCGGGCGCCAUGCCUGCAGGUCGACUCUAGAAAACAUG”, the binding signal (log2 enrichment (interaction score)) in experiment [1] was -6.3; in experiment [2], -1.53; in experiment [3], less than -7.29.
With “GGCUAGAACUAGUGGAUCCCCCGGCGCCCGGCGGCUCGAGCCCGGGUAAGUUUUCUUUGUCUGCAUGCCGCCGGGCGCCAUGCCUGCAGGUCGACUCUAGAAAACAUG”, the binding signal (log2 enrichment (interaction score)) in experiment [1] is -6.13; in experiment [5], -2.67.
